{"sequences": {"note": "Protein sequences, listed by entry. Tags and fused reporters are not part of them.", "UniProt Q04207": "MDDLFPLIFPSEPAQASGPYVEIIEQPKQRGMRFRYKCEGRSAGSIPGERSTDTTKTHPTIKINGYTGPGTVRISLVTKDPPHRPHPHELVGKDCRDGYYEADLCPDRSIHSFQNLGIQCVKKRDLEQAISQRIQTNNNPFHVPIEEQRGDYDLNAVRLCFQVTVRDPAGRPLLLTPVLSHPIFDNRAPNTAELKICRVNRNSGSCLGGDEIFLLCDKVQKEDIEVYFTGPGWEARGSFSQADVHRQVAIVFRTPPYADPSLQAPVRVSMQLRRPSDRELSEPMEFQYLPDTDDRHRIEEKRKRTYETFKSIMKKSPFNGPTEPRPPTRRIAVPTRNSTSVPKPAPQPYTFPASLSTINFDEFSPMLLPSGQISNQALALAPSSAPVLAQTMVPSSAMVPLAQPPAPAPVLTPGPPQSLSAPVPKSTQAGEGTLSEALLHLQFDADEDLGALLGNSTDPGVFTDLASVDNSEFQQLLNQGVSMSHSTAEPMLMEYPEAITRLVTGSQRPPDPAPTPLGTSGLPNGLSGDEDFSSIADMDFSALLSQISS", "UniProt P37238": "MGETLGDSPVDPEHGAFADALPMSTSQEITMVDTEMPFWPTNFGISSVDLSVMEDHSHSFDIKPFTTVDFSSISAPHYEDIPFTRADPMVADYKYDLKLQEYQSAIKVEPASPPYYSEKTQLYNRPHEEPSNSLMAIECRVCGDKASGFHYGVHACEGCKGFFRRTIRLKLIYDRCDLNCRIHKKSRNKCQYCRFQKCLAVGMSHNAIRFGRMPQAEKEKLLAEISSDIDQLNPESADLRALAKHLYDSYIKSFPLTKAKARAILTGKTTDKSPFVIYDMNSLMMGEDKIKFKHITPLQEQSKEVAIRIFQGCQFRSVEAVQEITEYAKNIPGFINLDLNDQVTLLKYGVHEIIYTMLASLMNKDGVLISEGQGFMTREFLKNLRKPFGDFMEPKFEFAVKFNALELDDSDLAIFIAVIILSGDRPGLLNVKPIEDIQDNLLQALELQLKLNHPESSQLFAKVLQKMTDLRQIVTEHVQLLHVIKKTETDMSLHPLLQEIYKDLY"}, "source": "paper PMC11749100", "about": "“Blockade of Arf1-mediated lipid metabolism in cancers promotes tumor infiltration of cytotoxic T cells via the LPE-PPARγ-NF-κB-CCL5 pathway”", "target": "NF-κB p65 protein (mouse (endogenous in CT26)) (UniProt Q04207)", "assay": "co-IP; endogenous proteins in CT26 cell lysate (25 mmol/L Tris-HCl pH 7.4, 150 mmol/L NaCl, 1% NP-40, 1 mmol/L EDTA, 5% glycerol); anti-p65 or anti-PPARγ antibody overnight at 4°C, Protein A+G Agarose, immunoblot; cells untreated or treated with LPE, DMSO, DU101/DU102 or Arf1 knockdown", "note": "These are yes or no findings as the source states them, for the method shown. In cells and extracts the contact can be indirect. Some binding calls cover weakened binding; strength is not graded here."}
{"substance": "peroxisome proliferator-activated receptor-γ (PPARγ) (from UniProt P37238 1-505)", "values": [{"measurement": "binding", "result": "binds"}]}
